# Source: PubChem BioAssay AID504847 (National Center for Advancing Translational Sciences (NCATS), 2011)
# Chains of the proteins cited; added tags and fusions are not shown. Lines headed by an entry give the natural chain unless they say otherwise; changes in a name come on top.
# UniProt P11473: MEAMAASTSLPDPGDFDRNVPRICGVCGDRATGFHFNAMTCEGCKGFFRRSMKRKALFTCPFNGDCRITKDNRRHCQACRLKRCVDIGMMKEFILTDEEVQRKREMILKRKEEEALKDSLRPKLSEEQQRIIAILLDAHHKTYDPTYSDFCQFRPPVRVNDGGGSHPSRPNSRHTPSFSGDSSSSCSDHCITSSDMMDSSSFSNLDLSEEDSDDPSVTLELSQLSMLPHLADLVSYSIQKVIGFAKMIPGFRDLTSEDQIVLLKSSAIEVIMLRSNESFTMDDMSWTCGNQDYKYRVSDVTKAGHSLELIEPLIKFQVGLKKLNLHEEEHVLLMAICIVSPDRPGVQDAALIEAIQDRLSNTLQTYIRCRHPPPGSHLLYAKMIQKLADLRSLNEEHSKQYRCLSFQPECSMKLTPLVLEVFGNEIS
# The campaign covered roughly 400,000 compounds. About 3,700 (0.93%) were called active. The shares of active, inactive and inconclusive entries below differ from those in the screen. The call rests on the fitted dose curve; in most records, active means well fitted inhibition curve with a large enough effect; inconclusive means small, poorly fitted or top-dose-only effect, or another doubt; inactive means no such curve, though single readings can be large or run the other way. Potencies beside an inconclusive call are fits to weak or partial responses and may not hold up.
# Biological target: Vitamin D3 receptor (Homo sapiens) (UniProt P11473)
# Experiment: Inhibitors of the vitamin D receptor (VDR): qHTS
# Details: VDR-SRC2-3 peptide fluorescence polarization, 2 h; max response, negative = inhibition: stronger effect = lower value
# In short: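 FP read-out; VDR + SRC2-3 coactivator peptide; 23 nl compound by pintool; 2 h RT incubation; reagents held at 4 deg C, protected from light.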
# On the % scale 0 is the no-effect control and ±100 the full control effect; potency means the concentration at half of the fitted maximal effect.
Compound,Potency,"max response, negative = inhibition"
COc1cc(/C=C2\C(=O)NN(c3ccc(C)cc3)C2=O)cc([N+](=O)[O-])c1O,"inconclusive: 89.1 µM [inhibitor, single point]",–
Cc1cccc(C)c1Nc1nnc(SCC(=O)c2ccc(Br)s2)s1,"inconclusive: 39.8 µM [inhibitor, full curve, poor fit]",–
CC(NS(=O)(=O)c1cccc(Cl)c1)C(=O)N(C)C1CCN(C)CC1 (stereo unspecified),"inconclusive: 100 µM [inhibitor, partial curve, poor fit]",–
COc1ccc(CCNC(=O)c2ccc3c(c2)N(Cc2cc(C)ccc2C)C(=O)c2ccccc2S3=O)cc1OC (stereo unspecified),–,inactive: -21.1%
COc1ccc2c(c1)O[C@@H](c1cccc(C(F)(F)F)c1)[C@H](OC(=O)NCc1ccco1)C2=O,"inconclusive: 70.8 µM [inhibitor, partial curve, poor fit]",–
CN1CCN(c2ncc3nc(CCc4ccccc4)c(=O)n(C4CC4)c3n2)CC1,"inconclusive: 70.8 µM [inhibitor, partial curve]",–
CCOC(=O)c1c(Nc2ccc(F)cc2)nnc(-c2ccccc2)c1-c1ccccc1,–,inactive: -23.1%
Cc1ccc(CSCC2Nc3ccc(C(=O)N4CCN(c5ccc(F)cc5)CC4)cc3NC2=O)cc1 (stereo unspecified),active: 79.4 µM,–
CC(C)(C)OC(=O)N1CCC(c2c(C(=O)N3CCN(c4ccccc4)CC3)cnn2-c2ccccc2)CC1,–,inactive: 4.28%
CCOC(=O)c1c(NC(=O)C2C3C=CC(C3)C2C(=O)O)sc2c1CCC(CC)C2 (stereo unspecified),"inconclusive: 79.4 µM [inhibitor, partial curve, poor fit]",–
CCS(=O)(=O)c1ncc(Cl)c(C(=O)Nc2ccc(S(=O)(=O)N3CCCC(C)C3)cc2)n1 (stereo unspecified),"inconclusive: 10 µM [inhibitor, full curve, poor fit]",–
COc1ccccc1C1=NC(c2ccc(C)cc2)N=C1C (stereo unspecified),"inconclusive: 3.55 µM [inhibitor, partial curve, poor fit]",–
O=C(N/N=C/c1cc(Cl)ccc1O)c1ccncc1,"inconclusive: 39.8 µM [inhibitor, single point]",–
C[C@H]([C@H](C)N1CC(=O)NC(=O)C1)N1CC(=O)NC(=O)C1,active: 44.7 µM,–
CCOc1cc(/C=N/Nc2nncc(-c3ccccc3)n2)ccc1O,–,inactive: -10.5%
COc1ccc(CNC(=O)c2c(-c3c(F)cccc3Cl)noc2C)cc1,"inconclusive: 89.1 µM [inhibitor, partial curve, poor fit]",–
CC(Oc1ccc(/C=N/NC(=O)Cc2cccc3ccccc23)cc1)C(=O)O (stereo unspecified),"inconclusive: 100 µM [inhibitor, partial curve, poor fit]",–
COc1cc(NC(=O)c2ccccn2)cc(OC)c1OC,"inconclusive: 17.8 µM [inhibitor, partial curve, poor fit]",–
COC(=O)N1CCN(/[N+]([O-])=N/Oc2ccc([N+](=O)[O-])cc2[N+](=O)[O-])CC1,"inconclusive: 89.1 µM [inhibitor, partial curve, poor fit]",–
O=C(/C=C/c1cccs1)c1cc(Cl)ccc1O,"inconclusive: 89.1 µM [inhibitor, partial curve, poor fit]",–
O=C(CSc1nc2nc(-c3cccs3)cc(C(F)(F)F)c2c(=O)[nH]1)C(F)(F)F,"inconclusive: 50.1 µM [inhibitor, partial curve]",–

# Taken from above.
# COc1ccc(CCNC(=O)c2ccc3c(c2)N(Cc2cc(C)ccc2C)C(=O)c2ccccc2S3=O)cc1OC (stereo unspecified) – max response, negative = inhibition: inactive: -21.1%
# CN1CCN(c2ncc3nc(CCc4ccccc4)c(=O)n(C4CC4)c3n2)CC1 – Potency: inconclusive: 70.8 µM [inhibitor, partial curve]

# (listing goes on)

Compound,Potency,"max response, negative = inhibition"
CCc1ccc(-n2nc(C)c3c(C)cc(=O)n(CC(=O)Nc4ccc(C(C)=O)cc4)c32)cc1,–,inactive: 0%
COc1cccc(C(=O)NCCS(=O)(=O)NC2CCCC2)c1,–,inactive: -15%
Cc1[nH][nH]c(=O)c1C(c1ccc(-c2ccc(C(=O)O)cc2)o1)c1c(C)[nH][nH]c1=O,"inconclusive: 70.8 µM [inhibitor, single point]",–
CCc1ccc(OCC(=O)NNC(=O)c2ccc(NC(=O)C3CC3)cc2)cc1,–,inactive: 22%
O=C(CN1CCCc2ccccc21)NCc1ccccc1Cl,–,inactive: 3.76%
Cn1c(N2CCN(C(=O)Nc3ccc(C(F)(F)F)cc3)CC2)nc2ccccc21,"inconclusive: 28.2 µM [inhibitor, partial curve, poor fit]",–
COc1cccc(C2=Nn3c(nnc3-c3ccccc3O)SC2)c1,"inconclusive: 70.8 µM [inhibitor, single point]",–
COc1cc(/C=N/Nc2snc(SC)c2C#N)ccc1O,–,inactive: 0.831%
O=C1CC(=O)N(CCc2ccc(F)cc2)C(=O)N1,"inconclusive: 89.1 µM [inhibitor, partial curve, poor fit]",–
CC(=O)N1c2ccccc2S(=O)(=O)c2c1ccc1ccccc21,–,inactive: -3.3%
COc1ccc(C(NCC(=O)Nc2c(C)cccc2C)c2ccccc2)cc1 (stereo unspecified),"inconclusive: 89.1 µM [inhibitor, single point]",–
CCC1(C)Cc2c(sc3[nH]c(=S)[nH]c(=S)c23)CO1 (stereo unspecified),–,inactive: -24.1%
COc1ccc(CNC(=O)CCCN2C(=O)COc3ccc(C)cc32)cc1,"inconclusive: 89.1 µM [inhibitor, single point]",–
O=C(CSc1ccc(-c2ccco2)nn1)Nc1ccc(F)cc1F,"inconclusive: 70.8 µM [inhibitor, single point]",–
CCNC(=S)Nc1cccc(F)c1C,"inconclusive: 79.4 µM [inhibitor, single point]",–
Cc1ccc(C)c(N2CCN(c3ncnc4c3cnn4-c3ccccc3)CC2)c1,"inconclusive: 89.1 µM [inhibitor, partial curve, poor fit]",–
Cc1ccc(CNC(=O)c2ccccc2N(C)S(C)(=O)=O)cc1,–,inactive: 5.32%
C=CCN1C(=O)C(O)(CC(=O)c2ccc(Cl)cc2)c2ccccc21 (stereo unspecified),"inconclusive: 89.1 µM [inhibitor, single point]",–
COc1ccc(O)c(/C=c2/sc3nc4cc(C)c(C)cc4n3c2=O)c1,"inconclusive: 17.8 µM [inhibitor, partial curve, poor fit]",–
COc1ccc(S(=O)(=O)Nc2ccccc2OC)cc1NC(=O)Cc1cccs1,"inconclusive: 44.7 µM [inhibitor, partial curve, poor fit]",–
